Data as given in PubChem BioAssay AID2685 (National Center for Advancing Translational Sciences (NCATS), 2010).
Among all 320,000 compounds or so, about 2,100 (0.66%) were called active. The shares of active, inactive and inconclusive entries below differ from those in the screen. The call rests on the fitted dose curve; in most records, active means well fitted inhibition curve with a large enough effect in the signal ratio, with a control signal flat (not every such curve was filed as active); inconclusive means small, poorly fitted or top-dose-only effect, or effect the other way, or a change in a side signal; inactive means flat fitted curve, though single readings scatter; the % refers to the signal ratio. Potencies beside an inconclusive call are fits to weak or partial responses and may not hold up.

Test: qHTS Assay for Lipid Storage Modulators in Drosophila S3 Cells
Settings: BODIPY lipid droplet fluorescence, 18-24 h, cells fed with added oleic acid; lipid storage change, negative = inhibition: at 46.1 µM (top of the series) unless noted
In short: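 Laser-scanning cytometry quantifies lipid droplet accumulation (500–530 nm total intensity; droplet/cell object ratio) in oleic acid-fed (400 uM added) Drosophila S3 cells treated with a concentration series. 20 uM Triacsin C defined 100% inhibition.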
On the % scale 0 is the no-effect control and ±100 the full control effect; potency means the concentration at half of the fitted maximal effect.

Lipid storage change, negative = inhibition, inconclusive:
COc1ccccc1NC(=O)CN(Cc1ccco1)C(=O)c1cncc(Br)c1 8.56%, Cc1ccccc1CNC(=O)C1CCC(=O)N(CC2CCCCC2)C1 (stereo not given) 4.63%, CCOC(=O)C(=O)Nc1cccc(C(=O)OCC)c1 29.6%, Cc1ccc(NC(=O)NN2CCN(C)CC2)cc1C -12.8%, O=C(NCc1cccnc1)C(=O)Nc1nc(C23CC4CC(CC(C4)C2)C3)cs1 -40.5%, Cc1ccc(NC(=O)c2ccc(NCCCN3CCOCC3)c([N+](=O)[O-])c2)cc1Cl 14.5%, Cc1ccccc1NS(=O)(=O)c1ccc(C(=O)N2CCCCCCC2)cc1 28%, C=CCOc1ccc(Br)cc1CNC(C)(C)C -6.8%, CCN(C(=O)[C@@H]1CCCN1C(=O)c1cccs1)c1nc2cc(Cl)ccc2s1 26.1%, CCOC(=O)C1CCCN(C(=O)c2ccccc2Oc2ccccc2)C1 (stereo not given) 55.2%, Cc1ccc(OCCCC(=O)Nc2ccc3c(c2)OCCO3)cc1 3.02%, N#Cc1ccc(OCC(=O)Nc2cccc(S(=O)(=O)NC3=NCCCCC3)c2)cc1, C/C(=N\NC(=S)NCc1ccccc1)c1ccc(Br)cc1 -7.68%, CC(=O)N1CCC(N(CCCOC(C)C)C(=O)Nc2ccc(C)c(C)c2)CC1 17.1%, COCCN(Cc1ccco1)C(=O)C1CCCN(c2ncnc3c2nc2n3CCCCC2)C1 (stereo not given) 197%, COc1ccc(NC(=O)Cn2nnc(C(=O)NCc3cccs3)c2N)cc1OC 31.4%, COc1ccccc1CCC(=O)OCC(=O)Nc1ccc(S(N)(=O)=O)cc1 11.6%, Cc1cc(C)nc(NS(=O)(=O)c2ccc(NC(=O)C(C)C)cc2)n1 12.1%, Clc1ccccc1OCc1nnc(-c2ccccc2Br)o1 27.9%, O=C(O)c1cnc(N2CCOCC2)nc1 46.8%, COc1ccc(/C=C2\Oc3cc(OCC(=O)N4CCC[C@H]4C(=O)O)ccc3C2=O)cc1OC -84.4%, CCCCC(=O)Nc1ccc(Br)cc1C(=O)O 2%, Cc1cc(C)c(S(C)(=O)=O)c(S(=O)c2ccc(Cl)cc2)n1 (stereo not given) 17.1%, CCOc1ccc(Nc2nc(-c3cccnc3)cs2)cc1 199%, CC(Oc1ccccc1)C(=O)OCC(=O)NC(=O)NC1CCCCC1 (stereo not given) -5.42%, CCOC(=O)Oc1ccc2c(=O)c(Oc3cc(C)cc(C)c3)coc2c1 15.7%, C/C(=N\NC(=O)c1ccc(N2CCCC2=O)cc1)c1ccncc1 17.6%, c1ccn2cc(C34CC5CC(CC(C5)C3)C4)nc2c1 18.1%, CC(C)Cn1c(N)c(C(=O)COC(=O)c2cc(C(F)(F)F)nc3c(C(F)(F)F)cccc23)c(=O)n(C)c1=O 26.8%, C#CCN1C(=O)C(O)(c2c(C)[nH]c3ccccc23)c2ccccc21 (stereo not given) 1.2%, N=C1/C(=C/c2cccn2Cc2ccc(F)cc2)C(=O)N=C2SC=CN12 12%, O=S(=O)(/N=C(/NS(=O)(=O)c1ccccc1)c1ccccc1)c1ccccc1 -25.1%

Lipid storage change, negative = inhibition, inactive:
CNNC(=S)NC1CC2CC1C1C=CCC21 (stereo not given) 14.9%, C/C(N)=C(/C#N)C(=O)COC(=O)c1ccc(NC(N)=O)cc1 7.52%, CCOC(=O)N1CCN(C(=O)c2oc3ccc(S(=O)(=O)N4CCCCC4)cc3c2C)CC1 14%

Potency, inconclusive:
COc1ccc(/C=N/NC(=O)CC(=O)NCc2cccnc2)cc1[N+](=O)[O-] 3.66 µM [activator, partial curve], COc1cc(-c2[nH]nc3c2C(c2ccco2)C(C#N)=C(N)O3)cc(OC)c1OC (stereo not given) 23.1 µM [falling, single point], COC(=O)C(Cc1ccc(O)cc1)NC(=O)C1CCN(S(=O)(=O)c2ccc(C)cc2)CC1 (stereo not given) 20.6 µM [activator, single point], COc1ccccc1NC(=O)Cc1nnc(SCC(=O)Nc2ccc(F)cc2F)n1C 0.651 µM [falling, single point], CCc1cc(/C(Cc2ccc3ccccc3n2)=N\O)c(O)cc1O 29.1 µM [falling, partial curve], CC(/C=C/c1ccc2c(c1)OCO2)=N/NC(=O)c1cccnc1 0.0206 µM [rising, full curve], O=S(=O)(c1ccccc1)N(C1=NCCS1)S(=O)(=O)c1ccccc1 3.66 µM [falling, partial curve, poor fit], COc1ccc(-c2nc(C#N)c(N3CCN(c4ccccc4)CC3)o2)cc1 14.6 µM [activator, partial curve, poor fit], COc1ccc(NC(=O)CSc2nnc(-c3cccs3)n2N)c(OC)c1 5.8 µM [activator, partial curve], Cc1ccc(-c2cc(-c3ccccc3Cl)c(C#N)c(N)n2)o1 13 µM [activator, partial curve], COc1ccc(-c2cc(C(F)(F)F)c(C#N)c(=O)[nH]2)cc1 0.116 µM [falling, full curve, poor fit], O=C(CNC(=O)c1ccc(N2C(=O)c3ccccc3C2=O)cc1)OCC(=O)c1cccc2ccccc12 8.2 µM [activator, partial curve], CN1/C(=C/c2cccc[n+]2C)Sc2ccccc21 18.4 µM [falling, single point], O=C(C1CCCN(Cc2cc(Br)ccc2O)C1)N1CCCCC1 (stereo not given) 2.91 µM [falling, full curve], CCOCCCNC(=O)C(c1ccc(C)cc1)N1CCOCC1 (stereo not given) 2.59 µM [falling, single point]
